What all share (assay): co-IP; HEK293 cells transiently co-transfected; cell lysates incubated with anti-FLAG beads, washed, western blotting; in the experiments of Figures 8e-h and 10e,f the cells were treated for 8 h with MG132 before harvesting
(In western blotting, separated proteins are transferred to a membrane and probed.)

Sequences of proteins named here, by UniProt entry; tags and fusion partners are left off.
UniProt P97454: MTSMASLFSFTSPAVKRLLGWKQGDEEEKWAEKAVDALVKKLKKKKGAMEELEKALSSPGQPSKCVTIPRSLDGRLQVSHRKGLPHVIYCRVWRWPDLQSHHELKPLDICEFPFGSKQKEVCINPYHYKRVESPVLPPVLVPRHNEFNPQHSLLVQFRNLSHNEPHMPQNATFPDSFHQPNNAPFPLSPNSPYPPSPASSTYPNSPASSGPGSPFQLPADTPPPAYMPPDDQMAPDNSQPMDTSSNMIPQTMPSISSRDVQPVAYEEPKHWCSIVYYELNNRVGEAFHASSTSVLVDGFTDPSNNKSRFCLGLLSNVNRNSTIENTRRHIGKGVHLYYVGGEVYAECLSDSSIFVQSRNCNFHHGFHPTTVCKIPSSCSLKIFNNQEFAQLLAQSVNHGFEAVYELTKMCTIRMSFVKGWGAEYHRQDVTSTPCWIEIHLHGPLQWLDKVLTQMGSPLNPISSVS
UniProt Q15797: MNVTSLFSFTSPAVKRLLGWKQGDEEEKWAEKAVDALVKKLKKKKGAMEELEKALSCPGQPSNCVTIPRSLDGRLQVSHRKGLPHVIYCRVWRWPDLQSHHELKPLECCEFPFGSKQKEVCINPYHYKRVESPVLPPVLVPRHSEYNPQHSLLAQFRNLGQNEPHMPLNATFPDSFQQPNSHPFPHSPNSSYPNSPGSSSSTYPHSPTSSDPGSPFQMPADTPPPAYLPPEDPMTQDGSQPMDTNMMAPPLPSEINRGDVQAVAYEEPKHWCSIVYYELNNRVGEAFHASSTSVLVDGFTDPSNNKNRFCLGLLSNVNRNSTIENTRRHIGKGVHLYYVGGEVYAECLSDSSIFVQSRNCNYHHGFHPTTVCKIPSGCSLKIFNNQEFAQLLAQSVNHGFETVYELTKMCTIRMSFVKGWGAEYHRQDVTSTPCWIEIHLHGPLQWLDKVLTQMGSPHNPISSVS
UniProt Q9HCE7: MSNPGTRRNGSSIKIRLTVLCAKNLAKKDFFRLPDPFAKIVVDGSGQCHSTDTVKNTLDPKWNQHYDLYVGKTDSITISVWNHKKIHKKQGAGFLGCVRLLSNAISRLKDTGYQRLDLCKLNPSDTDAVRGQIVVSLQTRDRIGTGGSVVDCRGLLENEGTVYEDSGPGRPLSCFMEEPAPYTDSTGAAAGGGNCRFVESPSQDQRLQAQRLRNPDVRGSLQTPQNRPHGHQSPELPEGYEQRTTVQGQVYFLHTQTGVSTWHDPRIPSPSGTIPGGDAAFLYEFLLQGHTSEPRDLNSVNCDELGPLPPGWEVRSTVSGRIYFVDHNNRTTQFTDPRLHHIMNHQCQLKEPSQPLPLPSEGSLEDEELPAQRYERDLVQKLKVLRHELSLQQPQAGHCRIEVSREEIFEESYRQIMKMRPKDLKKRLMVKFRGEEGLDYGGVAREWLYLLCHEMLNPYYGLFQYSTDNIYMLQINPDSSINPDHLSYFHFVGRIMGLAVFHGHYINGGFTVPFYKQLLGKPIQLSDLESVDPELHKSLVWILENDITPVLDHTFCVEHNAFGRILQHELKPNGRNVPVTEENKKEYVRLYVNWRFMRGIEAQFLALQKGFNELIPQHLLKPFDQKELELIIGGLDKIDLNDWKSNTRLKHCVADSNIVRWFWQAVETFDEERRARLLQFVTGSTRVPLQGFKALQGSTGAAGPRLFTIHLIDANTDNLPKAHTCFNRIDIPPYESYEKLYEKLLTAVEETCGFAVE
UniProt Q9HAU4: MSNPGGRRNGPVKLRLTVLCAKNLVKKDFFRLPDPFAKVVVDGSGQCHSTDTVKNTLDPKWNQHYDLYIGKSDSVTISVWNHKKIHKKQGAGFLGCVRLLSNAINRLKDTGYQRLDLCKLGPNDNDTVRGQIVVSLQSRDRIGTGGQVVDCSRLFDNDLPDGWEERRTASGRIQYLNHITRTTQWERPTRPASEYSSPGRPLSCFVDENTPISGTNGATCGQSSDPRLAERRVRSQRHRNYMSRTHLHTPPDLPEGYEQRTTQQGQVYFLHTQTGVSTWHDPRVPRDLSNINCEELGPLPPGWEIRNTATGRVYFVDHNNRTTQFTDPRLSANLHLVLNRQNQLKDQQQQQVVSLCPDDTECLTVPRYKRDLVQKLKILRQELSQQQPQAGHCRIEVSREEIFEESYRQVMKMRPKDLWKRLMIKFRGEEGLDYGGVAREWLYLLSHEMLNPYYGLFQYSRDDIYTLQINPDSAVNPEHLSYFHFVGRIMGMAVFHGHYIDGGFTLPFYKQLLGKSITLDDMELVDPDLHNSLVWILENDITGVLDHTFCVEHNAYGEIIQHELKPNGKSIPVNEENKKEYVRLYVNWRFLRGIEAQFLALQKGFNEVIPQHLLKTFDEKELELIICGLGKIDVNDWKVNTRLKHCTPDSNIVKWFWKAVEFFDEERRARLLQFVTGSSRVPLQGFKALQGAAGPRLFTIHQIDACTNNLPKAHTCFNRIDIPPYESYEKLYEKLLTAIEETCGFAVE

The target of assay [1] is FLAG-tagged Smad5 (mouse, wild-type) (mouse) (UniProt P97454).
Assay [2] deals with T1, FLAG-tagged ZC4H2 (wild-type, full-length mouse), bait of the reverse co-IP (mouse) (UniProt Q68FG0).
T1 sequence: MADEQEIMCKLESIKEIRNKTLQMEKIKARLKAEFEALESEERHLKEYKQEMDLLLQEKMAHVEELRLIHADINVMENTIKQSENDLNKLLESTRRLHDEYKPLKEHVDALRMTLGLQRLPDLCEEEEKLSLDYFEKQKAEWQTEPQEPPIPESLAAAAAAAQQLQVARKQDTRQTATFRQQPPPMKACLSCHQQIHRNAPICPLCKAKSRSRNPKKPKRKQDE

Assay [3] addresses FLAG-tagged Smad1 (human, wild-type) (human) (UniProt Q15797).
The target is the same in assay [4]. This is another data set of the same source.
For assay [5], the target named is FLAG-tagged Smad5 (mouse, wild-type) (mouse) (UniProt P97454). This is another data set of the same source.

Drawing on paper PMC5577449, this text covers binding for 10 molecules.

Like-named read-outs stand apart in the source and are kept apart here. No constants are given. Whether binding was seen depends on the method and setting. In cells and extracts the contact can be indirect. Some entries that bind do so weakly or less than the wild type. For some assays here: Sequences can lack the tags named with a protein.

Regarding “Smurf1 (wild-type) (from UniProt Q9HCE7 1-757) (enzyme)”, in assay [1], the binding result was “binds”. As for “Smad5 (mouse), prey of the reverse co-IP (from UniProt P97454 1-465)”, the binding entry in assay [2] was “binds”. Still for that read-out and setting: for “Smad1 (human), prey of the reverse co-IP (from UniProt Q15797 1-465)” the value was “binds”. Take “Smurf2 (wild-type) (from UniProt Q9HAU4 1-748) (enzyme)”: the binding entry in assay [3] and in assay [1] was “binds” each time.

B1: myc-tagged ZC4H2 (wild-type, full-length mouse) (protein, UniProt Q68FG0-1 1-224)
chain: MADEQEIMCKLESIKEIRNKTLQMEKIKARLKAEFEALESEERHLKEYKQEMDLLLQEKMAHVEELRLIHADINVMENTIKQSENDLNKLLESTRRLHDEYKPLKEHVDALRMTLGLQRLPDLCEEEEKLSLDYFEKQKAEWQTEPQEPPIPESLAAAAAAAQQLQVARKQDTRQTATFRQQPPPMKACLSCHQQIHRNAPICPLCKAKSRSRNPKKPKRKQDE
Consider B1, for which the binding entry in assay [4] and in assay [5] was “binds” throughout.

B2: myc-tagged ZC4H2 P201S (protein, UniProt Q68FG0-1 1-224)
chain: MADEQEIMCKLESIKEIRNKTLQMEKIKARLKAEFEALESEERHLKEYKQEMDLLLQEKMAHVEELRLIHADINVMENTIKQSENDLNKLLESTRRLHDEYKPLKEHVDALRMTLGLQRLPDLCEEEEKLSLDYFEKQKAEWQTEPQEPPIPESLAAAAAAAQQLQVARKQDTRQTATFRQQPPPMKACLSCHQQIHRNASICPLCKAKSRSRNPKKPKRKQDE
As to B2, the binding result in assay [4] and in assay [5] was “binds” in each case.

B3: myc-tagged ZC4H2 R213W (protein, UniProt Q68FG0-1 1-224)
chain: MADEQEIMCKLESIKEIRNKTLQMEKIKARLKAEFEALESEERHLKEYKQEMDLLLQEKMAHVEELRLIHADINVMENTIKQSENDLNKLLESTRRLHDEYKPLKEHVDALRMTLGLQRLPDLCEEEEKLSLDYFEKQKAEWQTEPQEPPIPESLAAAAAAAQQLQVARKQDTRQTATFRQQPPPMKACLSCHQQIHRNAPICPLCKAKSRSWNPKKPKRKQDE
B3: the binding result in assay [4] and in assay [5] was “binds” throughout.

B4: myc-tagged ZC4H2 R198Q (protein, UniProt Q68FG0-1 1-224)
chain: MADEQEIMCKLESIKEIRNKTLQMEKIKARLKAEFEALESEERHLKEYKQEMDLLLQEKMAHVEELRLIHADINVMENTIKQSENDLNKLLESTRRLHDEYKPLKEHVDALRMTLGLQRLPDLCEEEEKLSLDYFEKQKAEWQTEPQEPPIPESLAAAAAAAQQLQVARKQDTRQTATFRQQPPPMKACLSCHQQIHQNAPICPLCKAKSRSRNPKKPKRKQDE
As to B4, the binding entry in assay [4] and in assay [5] was “binds” each time.

B5: myc-tagged ZC4H2 A200V (protein, UniProt Q68FG0-1 1-224)
chain: MADEQEIMCKLESIKEIRNKTLQMEKIKARLKAEFEALESEERHLKEYKQEMDLLLQEKMAHVEELRLIHADINVMENTIKQSENDLNKLLESTRRLHDEYKPLKEHVDALRMTLGLQRLPDLCEEEEKLSLDYFEKQKAEWQTEPQEPPIPESLAAAAAAAQQLQVARKQDTRQTATFRQQPPPMKACLSCHQQIHRNVPICPLCKAKSRSRNPKKPKRKQDE
Regarding B5, the binding result in assay [4] and in assay [5] was “binds” each time.

B6: myc-tagged ZC4H2 V63L (protein, UniProt Q68FG0-1 1-224)
chain: MADEQEIMCKLESIKEIRNKTLQMEKIKARLKAEFEALESEERHLKEYKQEMDLLLQEKMAHLEELRLIHADINVMENTIKQSENDLNKLLESTRRLHDEYKPLKEHVDALRMTLGLQRLPDLCEEEEKLSLDYFEKQKAEWQTEPQEPPIPESLAAAAAAAQQLQVARKQDTRQTATFRQQPPPMKACLSCHQQIHRNAPICPLCKAKSRSRNPKKPKRKQDE
As for B6, the binding result in assay [4] and in assay [5] was “binds” in each case.
